# ChEMBL document CHEMBL4513143, “CO-ADD screening of University of Natural Resources and Life (Austria) compounds”
# This is one part of the list. Measured potencies and affinities stand elsewhere.
# Test system: Pseudomonas aeruginosa
# Settings: Concentration 32 ug.mL-1; ASSAY_TEST Inhibition of Bacterial Growth; detection method Absorption (OD600); MEDIA CAMHB; plate type 384well; NBS; CORNING #3640; time 18 hr
row,SMILES,Inhibition [%]
1,CCN(CC)CC.C[C@@H](CC1O[C@H]([C@@H](O)CO)[C@@H](O)[C@H](O)[C@@H]1O)OP(=O)(O)OC[C@H]1O[C@@H](n2cnc3c(N)ncnc32)[C@H](O)[C@@H]1O (stereo not given in full),6.57
2,CCN(CC)CC.O=P(O)(O)OC1C[C@@H](O)[C@H](O)[C@@H]([C@H](O)CO)O1 (stereo not given in full),-10.41
3,OC[C@@H](O)[C@H]1OC(O)C[C@@H](O)[C@@H]1O (stereo not given in full),-15.39
4,N.O=C(O)C1(O)C[C@@H](O)[C@H](O)[C@@H]([C@@H](O)CO)O1 (stereo not given in full),-0.96
5,CC(=O)CC1O[C@H]([C@@H](O)CO)[C@@H](O)[C@H](O)[C@@H]1O (stereo not given in full),-9.26
6,CCN(CC)CC.C[C@H](CC1O[C@H]([C@@H](O)CO)[C@@H](O)[C@H](O)[C@@H]1O)OP(=O)(O)O (stereo not given in full),3.72
7,CCN(CC)CC.C[C@H](CC1O[C@H]([C@@H](O)CO)[C@@H](O)[C@H](O)[C@@H]1O)OP(=O)(O)OC[C@H]1O[C@@H](n2cnc3c(N)ncnc32)[C@H](O)[C@@H]1O (stereo not given in full),9.79
8,CCN(CC)CC.C[C@@H](CC1O[C@H]([C@@H](O)CO)[C@@H](O)[C@H](O)[C@@H]1O)OP(=O)(O)O (stereo not given in full),-4.62
9,CCN(CC)CC.C[C@H](CC1O[C@H]([C@H](O)CO)[C@@H](O)[C@H](O)[C@@H]1O)OP(=O)(O)OC[C@H]1O[C@@H](n2cnc3c(N)ncnc32)[C@H](O)[C@@H]1O (stereo not given in full),8.73
10,CCN(CC)CC.C[C@@H](CC1O[C@H]([C@H](O)CO)[C@@H](O)[C@H](O)[C@@H]1O)OP(=O)(O)OC[C@H]1O[C@@H](n2cnc3c(N)ncnc32)[C@H](O)[C@@H]1O (stereo not given in full),-17.68

# Entries 7–8, reprinted for reference:
row,SMILES,Inhibition [%]
7,CCN(CC)CC.C[C@H](CC1O[C@H]([C@@H](O)CO)[C@@H](O)[C@H](O)[C@@H]1O)OP(=O)(O)OC[C@H]1O[C@@H](n2cnc3c(N)ncnc32)[C@H](O)[C@@H]1O (stereo not given in full),9.79
8,CCN(CC)CC.C[C@@H](CC1O[C@H]([C@@H](O)CO)[C@@H](O)[C@H](O)[C@@H]1O)OP(=O)(O)O (stereo not given in full),-4.62
